Test [1] deals with T1, TGF-β receptor 2 (TβR2), endogenous in NRK-49F cells (rat (endogenous in NRK-49F)) (UniProt P38438).
T1 sequence: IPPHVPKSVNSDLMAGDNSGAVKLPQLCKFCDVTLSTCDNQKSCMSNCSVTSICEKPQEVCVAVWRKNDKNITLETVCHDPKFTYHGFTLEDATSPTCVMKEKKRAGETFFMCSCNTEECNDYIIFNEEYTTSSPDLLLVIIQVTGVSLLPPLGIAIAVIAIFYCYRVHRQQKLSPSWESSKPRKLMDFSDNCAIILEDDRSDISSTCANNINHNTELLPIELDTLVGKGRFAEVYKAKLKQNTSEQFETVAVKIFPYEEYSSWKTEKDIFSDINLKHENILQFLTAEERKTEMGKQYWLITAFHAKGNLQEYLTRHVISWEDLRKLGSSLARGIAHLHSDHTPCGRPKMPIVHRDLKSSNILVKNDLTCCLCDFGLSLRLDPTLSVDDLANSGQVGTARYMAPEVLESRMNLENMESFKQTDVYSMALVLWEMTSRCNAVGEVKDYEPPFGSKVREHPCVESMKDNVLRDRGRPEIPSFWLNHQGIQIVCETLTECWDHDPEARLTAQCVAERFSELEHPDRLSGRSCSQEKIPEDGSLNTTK
In words: co-IP; TβR1 with TβR2 in cells in the absence or presence of KP1 (Fig. 2h).

The target of test [2] is T1, TGF-β receptor 2 (TβR2), endogenous in NRK-49F cells (rat (endogenous in NRK-49F)). In words: co-IP; cells transfected with sKlotho plasmid for 24 h, incubated with TGF-β1 in the absence or presence of KP1; precipitated with anti-TβR2.
A further test deals with T2, FITC-labeled KP1 (human) (UniProt Q9UEF7).
T2 sequence (peptide, fluorescein isothiocyanate (FITC) label, position not stated): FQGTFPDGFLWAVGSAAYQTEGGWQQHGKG
In words: co-IP; reciprocal: mixtures of NRK-49F cell lysate and FITC-KP1 precipitated with anti-FITC, blotted for TβR2 and FITC; only the target purified.

Drawing on paper PMC8782923, “A Klotho-derived peptide protects against kidney fibrosis by targeting TGF-β signaling” (Nature Communications, 2022), this text covers binding for 3 molecules.

Results are given in words; binding and its absence hold for the method and conditions named. In cells and extracts the contact can be indirect. Some entries that bind do so weakly or less than the wild type.

B1: TβR1, endogenous in NRK-49F cells (receptor, UniProt P80204 30-501)
chain: LQCFCHLCTKDNFTCETDGLCFVSVTETTDKVIHNSMCIAEIDLIPRDRPFVCAPSSKTGAVTYCCNQDHCNKIELPTTGPFSEKQSAGLGPVELAAVIAGPVCFVCIALMLMVYICHNRTVIHHRVPNEEDPSLDRPFISEGTTLKDLIYDMTTSGSGSGLPLLVQRTIARTIVLQESIGKGRFGEVWRGKWRGEEVAVKIFSSREERSWFREAEIYQTVMLRHENILGFIAADNKDNGTWTQLWLVSDYHEHGSLFDYLNRYTVTVEGMIKLALSTASGLAHLHMEIVGTQGKPAIAHRDLKSKNILVKKNGTCCIADLGLAVRHDSATDTIDIAPNHRVGTKRYMAPEVLDDSINMKHFESFKRADIYAMGLVFWEIARRCSIGGIHEDYQLPYYDLVPSDPSVEEMRKVVCEQKLRPNIPNRWQSCEALRVMAKIMRECWYANGAARLTALRIKKTLSQLSQQEGIKM
In the case of B1, the binding entry in test [1] is reported as “binds”.

B2: human secreted Klotho (sKlotho) that only contains KL1 domain (protein, UniProt Q9UEF7-2 34-549)
chain: EPGDGAQTWARFSRPPAPEAAGLFQGTFPDGFLWAVGSAAYQTEGGWQQHGKGASIWDTFTHHPLAPPGDSRNASLPLGAPSPLQPATGDVASDSYNNVFRDTEALRELGVTHYRFSISWARVLPNGSAGVPNREGLRYYRRLLERLRELGVQPVVTLYHWDLPQRLQDAYGGWANRALADHFRDYAELCFRHFGGQVKYWITIDNPYVVAWHGYATGRLAPGIRGSPRLGYLVAHNLLLAHAKVWHLYNTSFRPTQGGQVSIALSSHWINPRRMTDHSIKECQKSLDFVLGWFAKPVFIDGDYPESMKNNLSSILPDFTESEKKFIKGTADFFALCFGPTLSFQLLDPHMKFRQLESPNLRQLLSWIDLEFNHPQIFIVENGWFVSGTTKRDDAKYMYYLKKFIMETLKAIKLDGVDVIGYTAWSLMDGFEWHRGYSIRRGLFYVDFLSQDKMLLPKSSALFYQKLIEKNGFPPLPENQPLEGTFPCDFAWGVVDNYIQVSQLTKPISSLTKPYH
In the case of B2, in test [2], the binding entry is “binds”.

B3: TGF-β receptor 2 (TβR2), endogenous in NRK-49F cells (receptor, UniProt P38438 24-567)
chain: T1 sequence
As for B3, in the test with FITC-labeled KP1 (human), the binding entry is “binds”.
